From the supplement of paper PMC10849652
This is one part of the list.

Sequences of proteins named here, by UniProt entry; tags and fusion partners are left off. A change or cut given only in a name is not applied to a line headed by its entry.
UniProt Q8TBB5: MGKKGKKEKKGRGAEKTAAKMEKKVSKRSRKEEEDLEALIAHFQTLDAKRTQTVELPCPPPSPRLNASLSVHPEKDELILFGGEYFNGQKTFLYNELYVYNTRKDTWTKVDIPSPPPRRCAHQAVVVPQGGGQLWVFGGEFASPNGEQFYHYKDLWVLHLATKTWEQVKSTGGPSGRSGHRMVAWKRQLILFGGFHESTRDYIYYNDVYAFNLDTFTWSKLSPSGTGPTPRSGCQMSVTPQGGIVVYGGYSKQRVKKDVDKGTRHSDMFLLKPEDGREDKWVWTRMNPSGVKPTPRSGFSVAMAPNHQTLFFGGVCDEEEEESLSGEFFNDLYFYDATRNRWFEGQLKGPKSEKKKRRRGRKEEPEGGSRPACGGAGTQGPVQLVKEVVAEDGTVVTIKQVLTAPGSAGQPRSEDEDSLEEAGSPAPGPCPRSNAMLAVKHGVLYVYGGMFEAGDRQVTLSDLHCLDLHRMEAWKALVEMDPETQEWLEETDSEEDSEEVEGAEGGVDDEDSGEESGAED
UniProt Q8IYS2: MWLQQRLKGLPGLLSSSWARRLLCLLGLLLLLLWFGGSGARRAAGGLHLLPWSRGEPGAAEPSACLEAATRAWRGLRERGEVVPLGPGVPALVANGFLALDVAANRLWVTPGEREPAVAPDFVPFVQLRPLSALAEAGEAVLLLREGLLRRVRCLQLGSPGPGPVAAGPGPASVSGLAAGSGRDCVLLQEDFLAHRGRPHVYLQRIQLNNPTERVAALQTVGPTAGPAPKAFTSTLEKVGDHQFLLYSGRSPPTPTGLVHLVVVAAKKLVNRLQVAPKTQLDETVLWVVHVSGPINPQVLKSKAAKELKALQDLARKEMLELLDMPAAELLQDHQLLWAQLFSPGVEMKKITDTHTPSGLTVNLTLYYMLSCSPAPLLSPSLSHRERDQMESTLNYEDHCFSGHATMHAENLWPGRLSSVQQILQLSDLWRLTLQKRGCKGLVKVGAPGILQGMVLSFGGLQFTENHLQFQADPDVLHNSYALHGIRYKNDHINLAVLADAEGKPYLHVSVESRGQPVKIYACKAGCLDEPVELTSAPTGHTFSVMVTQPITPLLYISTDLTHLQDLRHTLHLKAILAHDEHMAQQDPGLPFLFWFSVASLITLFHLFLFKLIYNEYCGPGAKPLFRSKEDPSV
UniProt Q96EK9: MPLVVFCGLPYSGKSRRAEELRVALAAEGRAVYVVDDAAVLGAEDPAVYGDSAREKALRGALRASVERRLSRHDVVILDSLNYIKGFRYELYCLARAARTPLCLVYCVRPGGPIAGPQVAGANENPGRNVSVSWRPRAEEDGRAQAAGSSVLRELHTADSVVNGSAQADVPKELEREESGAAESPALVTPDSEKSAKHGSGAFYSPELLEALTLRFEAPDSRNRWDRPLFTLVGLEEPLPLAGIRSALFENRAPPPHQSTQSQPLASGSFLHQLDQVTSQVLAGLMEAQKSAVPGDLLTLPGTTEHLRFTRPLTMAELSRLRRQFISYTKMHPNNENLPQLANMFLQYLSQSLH
UniProt Q06136: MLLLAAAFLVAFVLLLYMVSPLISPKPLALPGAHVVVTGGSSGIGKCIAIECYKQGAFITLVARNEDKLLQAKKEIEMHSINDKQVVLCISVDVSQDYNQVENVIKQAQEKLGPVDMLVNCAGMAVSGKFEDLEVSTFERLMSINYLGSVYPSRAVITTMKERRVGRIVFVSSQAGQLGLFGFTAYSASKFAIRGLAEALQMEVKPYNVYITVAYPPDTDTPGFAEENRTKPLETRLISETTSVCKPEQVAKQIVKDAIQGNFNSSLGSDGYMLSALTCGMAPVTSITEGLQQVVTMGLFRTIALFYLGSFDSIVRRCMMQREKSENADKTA
UniProt Q99661: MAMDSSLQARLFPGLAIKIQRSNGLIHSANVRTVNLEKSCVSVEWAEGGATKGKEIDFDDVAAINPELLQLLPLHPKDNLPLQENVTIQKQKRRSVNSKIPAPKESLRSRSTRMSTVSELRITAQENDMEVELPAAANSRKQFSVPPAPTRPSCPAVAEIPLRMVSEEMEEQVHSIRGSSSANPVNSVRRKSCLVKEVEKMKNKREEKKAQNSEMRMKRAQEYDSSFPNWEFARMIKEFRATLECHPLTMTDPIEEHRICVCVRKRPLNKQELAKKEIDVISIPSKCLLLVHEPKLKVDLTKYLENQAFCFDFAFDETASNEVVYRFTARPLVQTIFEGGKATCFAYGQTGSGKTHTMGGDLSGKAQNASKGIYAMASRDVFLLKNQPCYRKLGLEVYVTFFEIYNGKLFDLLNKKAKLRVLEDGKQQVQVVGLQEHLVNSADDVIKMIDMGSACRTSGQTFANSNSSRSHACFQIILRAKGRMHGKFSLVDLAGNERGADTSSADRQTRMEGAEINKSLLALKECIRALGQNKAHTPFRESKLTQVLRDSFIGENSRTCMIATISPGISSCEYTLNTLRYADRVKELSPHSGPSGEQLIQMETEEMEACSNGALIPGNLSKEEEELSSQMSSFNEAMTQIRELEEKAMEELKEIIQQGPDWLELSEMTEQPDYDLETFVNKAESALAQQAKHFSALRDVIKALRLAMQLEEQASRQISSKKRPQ
UniProt O43813, whole entry, looked up: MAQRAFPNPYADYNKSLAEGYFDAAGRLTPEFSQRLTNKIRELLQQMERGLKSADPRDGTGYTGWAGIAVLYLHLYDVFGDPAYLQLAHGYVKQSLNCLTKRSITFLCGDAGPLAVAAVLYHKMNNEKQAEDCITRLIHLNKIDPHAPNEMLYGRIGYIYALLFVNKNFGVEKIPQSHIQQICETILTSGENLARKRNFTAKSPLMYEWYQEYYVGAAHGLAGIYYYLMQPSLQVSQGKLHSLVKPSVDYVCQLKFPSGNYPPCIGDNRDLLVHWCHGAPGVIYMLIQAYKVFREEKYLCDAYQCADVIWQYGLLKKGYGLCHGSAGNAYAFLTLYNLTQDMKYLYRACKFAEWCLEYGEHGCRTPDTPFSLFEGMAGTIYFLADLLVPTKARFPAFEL
UniProt Q9Y664: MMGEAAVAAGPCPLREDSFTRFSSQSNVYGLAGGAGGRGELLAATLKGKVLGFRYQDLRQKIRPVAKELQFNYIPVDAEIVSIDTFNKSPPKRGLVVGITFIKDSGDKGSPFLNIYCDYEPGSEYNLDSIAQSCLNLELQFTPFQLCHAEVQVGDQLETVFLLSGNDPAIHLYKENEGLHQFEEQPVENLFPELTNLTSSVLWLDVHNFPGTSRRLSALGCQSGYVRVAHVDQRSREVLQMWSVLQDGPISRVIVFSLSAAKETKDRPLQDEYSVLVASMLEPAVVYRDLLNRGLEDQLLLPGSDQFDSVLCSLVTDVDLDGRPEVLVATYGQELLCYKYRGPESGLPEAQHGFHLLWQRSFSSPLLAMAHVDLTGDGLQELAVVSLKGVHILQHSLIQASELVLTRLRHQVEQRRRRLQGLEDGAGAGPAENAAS
UniProt Q14145, whole entry, looked up: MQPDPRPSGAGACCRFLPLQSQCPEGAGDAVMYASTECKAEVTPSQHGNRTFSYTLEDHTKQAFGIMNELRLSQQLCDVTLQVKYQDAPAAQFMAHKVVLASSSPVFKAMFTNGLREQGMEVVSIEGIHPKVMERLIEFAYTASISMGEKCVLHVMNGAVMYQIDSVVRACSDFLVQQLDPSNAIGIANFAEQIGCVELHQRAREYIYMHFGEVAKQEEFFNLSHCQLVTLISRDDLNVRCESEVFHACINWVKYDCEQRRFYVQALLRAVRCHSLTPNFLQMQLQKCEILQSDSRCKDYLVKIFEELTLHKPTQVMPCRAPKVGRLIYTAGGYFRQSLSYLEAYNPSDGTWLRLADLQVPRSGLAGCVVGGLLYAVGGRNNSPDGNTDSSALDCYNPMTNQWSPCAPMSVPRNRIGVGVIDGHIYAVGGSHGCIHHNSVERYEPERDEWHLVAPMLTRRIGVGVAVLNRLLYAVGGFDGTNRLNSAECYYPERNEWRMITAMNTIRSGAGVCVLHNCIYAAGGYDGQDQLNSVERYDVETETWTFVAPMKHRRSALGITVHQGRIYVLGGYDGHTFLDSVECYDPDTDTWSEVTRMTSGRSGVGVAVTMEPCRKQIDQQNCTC
UniProt Q9H0B6: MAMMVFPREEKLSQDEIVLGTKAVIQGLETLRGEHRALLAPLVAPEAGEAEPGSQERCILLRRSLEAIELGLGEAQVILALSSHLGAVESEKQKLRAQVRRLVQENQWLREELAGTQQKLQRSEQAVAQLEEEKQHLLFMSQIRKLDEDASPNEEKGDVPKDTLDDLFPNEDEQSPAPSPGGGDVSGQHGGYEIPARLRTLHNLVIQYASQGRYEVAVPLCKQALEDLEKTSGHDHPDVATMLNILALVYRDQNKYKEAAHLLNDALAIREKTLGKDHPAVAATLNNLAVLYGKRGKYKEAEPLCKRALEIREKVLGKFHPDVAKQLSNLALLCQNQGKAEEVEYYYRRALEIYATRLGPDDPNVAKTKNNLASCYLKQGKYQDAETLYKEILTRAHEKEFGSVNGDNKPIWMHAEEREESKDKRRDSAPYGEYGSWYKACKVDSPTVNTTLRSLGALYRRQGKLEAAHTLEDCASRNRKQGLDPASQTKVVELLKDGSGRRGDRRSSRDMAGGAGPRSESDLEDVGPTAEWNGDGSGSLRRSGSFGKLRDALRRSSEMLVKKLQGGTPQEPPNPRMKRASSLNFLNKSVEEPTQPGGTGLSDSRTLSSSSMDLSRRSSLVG
UniProt Q14974, whole entry, looked up: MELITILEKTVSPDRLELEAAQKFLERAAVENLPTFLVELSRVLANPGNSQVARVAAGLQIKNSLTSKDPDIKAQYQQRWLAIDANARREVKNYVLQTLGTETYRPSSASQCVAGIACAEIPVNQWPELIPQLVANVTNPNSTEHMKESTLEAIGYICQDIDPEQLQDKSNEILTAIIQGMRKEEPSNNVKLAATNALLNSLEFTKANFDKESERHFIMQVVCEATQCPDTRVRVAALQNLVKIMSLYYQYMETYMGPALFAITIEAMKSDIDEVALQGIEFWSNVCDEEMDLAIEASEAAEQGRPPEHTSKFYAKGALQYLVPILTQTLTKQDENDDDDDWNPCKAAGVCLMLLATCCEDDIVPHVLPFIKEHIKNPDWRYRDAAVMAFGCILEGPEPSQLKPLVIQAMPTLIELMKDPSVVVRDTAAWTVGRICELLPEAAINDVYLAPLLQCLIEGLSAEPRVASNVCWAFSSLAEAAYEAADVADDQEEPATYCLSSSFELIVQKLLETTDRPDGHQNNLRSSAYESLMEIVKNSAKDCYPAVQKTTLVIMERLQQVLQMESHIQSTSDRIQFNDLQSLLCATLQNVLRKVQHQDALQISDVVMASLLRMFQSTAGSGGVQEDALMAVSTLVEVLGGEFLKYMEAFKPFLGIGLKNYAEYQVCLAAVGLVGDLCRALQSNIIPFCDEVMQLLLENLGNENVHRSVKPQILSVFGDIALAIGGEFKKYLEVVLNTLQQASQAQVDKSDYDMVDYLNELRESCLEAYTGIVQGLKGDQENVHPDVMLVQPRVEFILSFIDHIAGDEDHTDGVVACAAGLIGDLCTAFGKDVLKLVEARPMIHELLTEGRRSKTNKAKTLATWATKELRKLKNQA
UniProt Q71RC2, whole entry, looked up: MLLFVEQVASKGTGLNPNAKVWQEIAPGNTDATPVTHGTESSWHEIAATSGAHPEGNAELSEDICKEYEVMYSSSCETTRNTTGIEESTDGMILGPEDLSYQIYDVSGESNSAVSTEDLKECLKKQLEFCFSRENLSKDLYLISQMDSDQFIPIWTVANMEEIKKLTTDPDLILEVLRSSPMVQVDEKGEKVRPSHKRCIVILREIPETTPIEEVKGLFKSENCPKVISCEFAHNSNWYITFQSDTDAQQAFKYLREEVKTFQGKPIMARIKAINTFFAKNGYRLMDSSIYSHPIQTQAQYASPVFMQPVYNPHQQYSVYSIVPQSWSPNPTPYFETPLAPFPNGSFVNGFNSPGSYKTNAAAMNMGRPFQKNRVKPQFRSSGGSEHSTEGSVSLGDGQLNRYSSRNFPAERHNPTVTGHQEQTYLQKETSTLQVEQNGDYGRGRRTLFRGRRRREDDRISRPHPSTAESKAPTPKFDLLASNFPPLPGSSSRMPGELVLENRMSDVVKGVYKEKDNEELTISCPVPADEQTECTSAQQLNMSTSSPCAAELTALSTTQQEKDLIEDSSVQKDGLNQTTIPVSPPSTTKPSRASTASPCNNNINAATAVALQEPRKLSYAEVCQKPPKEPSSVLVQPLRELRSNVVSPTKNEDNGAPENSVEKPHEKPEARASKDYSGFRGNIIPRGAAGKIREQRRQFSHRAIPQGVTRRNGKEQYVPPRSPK
UniProt Q96A73: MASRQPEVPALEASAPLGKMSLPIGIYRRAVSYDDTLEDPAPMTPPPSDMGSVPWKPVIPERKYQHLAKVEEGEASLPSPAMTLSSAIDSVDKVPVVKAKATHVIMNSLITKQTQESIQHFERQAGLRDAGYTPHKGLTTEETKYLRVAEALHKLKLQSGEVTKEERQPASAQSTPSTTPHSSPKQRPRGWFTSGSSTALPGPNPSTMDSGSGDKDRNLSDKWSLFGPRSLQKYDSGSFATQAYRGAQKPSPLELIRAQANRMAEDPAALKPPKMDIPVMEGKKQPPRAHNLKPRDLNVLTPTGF

These targets were tested with CC(C)(C)Cn1c(N)nc2ccc(-c3[nH]c(C(C)(C)C)nc3-c3ccc(F)cc3)nc21 [ralimetinib] (assay: log2 fold change, soluble protein after heating vs DMSO (PISA); higher = thermal stabilisation; K562 lysate, 10 uM; active = over 0.2 and 3.5 SD of the protein, either way, in both replicates (recomputed)).
Procedure, shortened: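 Thermal stability, expressed as log-two fold change relative to solvent controls, is given from duplicates. Crude K562 extract in PBS pH 7.4 with 1 mM MgCl2, at 1 mg/mL protein, was treated with 10 μM compound for 30 min and heated in aliquots for 3 min across 48°C-58°C. After pooling, adjustment to 0.5% NP-40 at 4°C and centrifugation at 21,000xg for 90 min, supernatant protein was measured by TMTpro 16plex LC-MS/MS with channel sums equalised.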

log2 fold change, inactive:
KLHDC4 (UniProt Q8TBB5) 0.062
KIF5B (UniProt P33176) -0.002
KIAA2013 (UniProt Q8IYS2) 0.019
KIF1B isoform 2 (UniProt O60333) 0.049
KTI12 (UniProt Q96EK9) 0.008
KDSR (UniProt Q06136) 0.002
KIF2C (UniProt Q99661) 0.048
LANCL1 (UniProt O43813) -0.004
KPTN (UniProt Q9Y664) -0.042
LARP7 isoform 3 (UniProt Q4G0J3) -0.015
KDM8 isoform 3 (UniProt Q8N371) 0.013
KEAP1 (UniProt Q14145) 0.017
KLC2 (UniProt Q9H0B6) 0.003
KPNB1 (UniProt Q14974) -0.002
KSR1 (UniProt Q8IVT5) 0.054
KPNA2 (UniProt P52292) -0.001
KLHDC3 (UniProt Q9BQ90) 0.06
KYAT3 (UniProt Q6YP21) 0.017
LARP4 isoform 4 (UniProt Q71RC2) -0.014
KIF5A (UniProt Q12840) 0.012
KIAA1191 (UniProt Q96A73) -0.046
KIF2A isoform 4 (UniProt O00139) 0.017
KIAA1324L (UniProt A8MWY0) -0.009

Taken from the listing for reference:
log2 fold change, inactive:
KPNA2 (UniProt P52292) -0.001
KLHDC3 (UniProt Q9BQ90) 0.06
